The campaign covered roughly 210,000 compounds. About 5,900 (2.8%) were called active. Inconclusive results (about 5%) are left out. Calls follow the shape of the dose curve; as a rule, active = well fitted activation curve with a large enough effect; inconclusive = small, poorly fitted or top-dose-only effect; inactive = no such curve, though single readings can be large or run the other way. The entries are a selection whose mix differs from that of the whole data set. Entries without a call were filed so in the source.

The results in this text go back to PubChem BioAssay AID1458 (National Center for Advancing Translational Sciences (NCATS), 2008).
Potency is read from the fitted curve at half-maximal effect.

This test can be described thus: qHTS Assay for Enhancers of SMN2 Splice Variant Expression. Also: nearly all actives have a fitted effect of over 55% in size. As to activity change, positive = activation: % of control where 0% means no effect. Particulars: HEK293 SMN2-luciferase splicing reporter, luminescence, 30-36 h; activity change, positive = activation: at 46.1 µM (top of the series) unless noted. A digest of the protocol: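 HEK293 cells carry an SMN2 minigene-luciferase reporter in which exon 7 inclusion puts luciferase in frame. Cells were seeded at 2000 cells/well, attached for 10-12 hours, then exposed to compounds for 30-36 hours at 37C before ONE-Glo luminescence.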
(In qHTS, concentration-response curves come from the screen itself.)
For the molecule `c1ccc(CCNc2ccnc3cc4ccccc4cc23)cc1`, the “activity change, positive = activation” value is inactive: -65.8%.

On to `CCCCc1ccc(-c2ccc(C)cc2O)nc1`, for which the Potency is active: 22.4 µM. As for `CCCOc1ccc(C(=O)NNC(=S)NC(=O)CC)cc1`, the activity change, positive = activation is -89.3%. On the same count and under the same terms, for `O=C(OCc1ccc(F)cc1Cl)c1ccccn1` the value was 53.2%; for `CC1CC(C)CN(CCOc2ccc(Cl)cc2Cl)C1` (stereo unspecified), 23%. On the same count and under the same terms, for `CCSc1nnc(NC(=O)NC2CCCCC2)s1` the value was 72.7%; for `O=C(c1ccc2c(c1)N(Cc1ccccc1)C(=O)c1ccccc1S2=O)N1CCC(Cc2ccccc2)CC1` (stereo unspecified), inactive: -46.4%. Turning to `N=C(N)SCc1ccccn1`, the activity change, positive = activation was -0.944%. In the case of `CCN(CC)c1ccc(/C=N/NC(=O)c2cnccn2)cc1`, the Potency was active: 20 µM.

As to `COc1ccc(-c2nnc(SCc3ccccc3F)o2)cc1`, the Potency was active: 11.2 µM. On to `Cc1scc(C(=O)Nn2cnnc2)c1-c1ccccc1`, for which the activity change, positive = activation is 41.6%. For `CCCCOC(=O)c1ccc(O)cc1`, the Potency entry is “inactive”. As for `CCCCN=C1NN=C(c2ccc3c(c2)OCCO3)CS1`, the activity change, positive = activation is -39.9%. Still for that read-out and setting: for `CCN(CC)CCCNC(=O)CSc1nc2nc(C)c(Cc3c(F)cccc3Cl)c(C)n2n1` the value was -41%. The same measure, in the same setting: for `Cn1c(=O)n(CC(=O)NC2CCCCC2)c(=O)c2ccccc21` the value was 61.3%. Still for that read-out and setting: the result for `O=C(CCN1C(=O)c2ccccc2C1=O)NCc1ccco1` reads 35.1%; that for `CCn1c(C)nc2cc(-c3nc4n(n3)Cc3ccccc3-4)ccc21`, inactive: -64.7%. On to `CCOc1cc(CNc2ncc(-c3ccc(OC)cc3)n2C)ccc1O`, for which the activity change, positive = activation turned out to be 34.9%. As for `CCC1CCCCN1C(=S)Nc1ccc(OC(F)F)cc1` (stereo unspecified), the activity change, positive = activation is -57%. Regarding `Cc1ccn2c(-c3csc(NCc4ccco4)n3)c(C)nc2c1`, the activity change, positive = activation was -31.2%. Consider `CC(=O)c1c(C)[nH]c(C(=O)OC2CCOC2=O)c1C` (stereo unspecified), for which the activity change, positive = activation stood at 56.6%. Still for that read-out and setting: the result for `CCCCCCCCCc1nc2sc3c(c2c(=O)n1NC(=O)c1ccccc1[N+](=O)[O-])CC(C)(C)OC3` reads -72.4%; that for `COc1ccc(OC)c(C(=O)c2ccc(C(=O)Nc3ccc4ccccc4c3)cc2)c1`, inactive: -52.4%; that for `O=C(N/N=C/c1cccnc1)c1cc2c(ccc3ccccc32)o1`, inactive: -13.4%. For `COc1ccc(-n2ncc3c(N4CCc5ccccc54)ncnc32)cc1`, the Potency is active: 5.62 µM.

Regarding `Cc1ccc(C2/C(=C(/O)c3cnn(-c4ccccc4)c3C)C(=O)C(=O)N2CCN2CCOCC2)o1` (stereo unspecified), the “activity change, positive = activation” value was inactive: -51.7%.

As for `Cc1cccc(NCCC#N)c1`, the activity change, positive = activation was 30.6%.

As to `NC(=O)c1cc2cc(Cl)ccc2oc1=O`, the activity change, positive = activation amounted to 33.3%. Regarding `CC(Oc1ccc(C(=O)c2ccccc2)cc1)C(=O)Nc1ccc(S(N)(=O)=O)cc1` (stereo unspecified), the activity change, positive = activation is -59.6%. On to `CCOc1ccc(/C=C/C2=NNC(=O)CC2)cc1`, for which the Potency was active: 11.2 µM. `Cc1nc2nc[nH]n2c(=O)c1NC(=O)c1c(-c2ccccc2Cl)noc1C`: the activity change, positive = activation came out at 64.2%. On the same count and under the same terms, for `COc1cc2c(cc1OC)C(c1ccsc1)CC(=O)N2` (stereo unspecified) the value was 22%. For the molecule `CC(C)OCCCNC(=O)c1ccc(NS(C)(=O)=O)cc1`, the activity change, positive = activation worked out at 38.2%. With `CN(C)c1ccc(N=Nc2cccc3ccoc23)cc1`, the Potency is active: 3.55 µM. For the molecule `Fc1ccc(/C=C/c2nnc(-c3cccs3)o2)cc1`, the Potency is active: 12.6 µM. `CC(C)CC(N=C1NC(C)(C)Cc2ccccc21)C(=O)O` (stereo unspecified): the activity change, positive = activation was -55%. Still for that read-out and setting: for `CC1(C)CC(CCC(=O)Nc2ccccc2Cl)C(=O)O1` (stereo unspecified) the value was 30%. As to `O=C(c1ccco1)N1CCN(C(c2ccccn2)c2nnnn2C2CCCC2)CC1` (stereo unspecified), the Potency was active: 12.6 µM. As for `CCC(C)NC(=O)CN1C(=O)NC2(CCc3ccccc3C2)C1=O` (stereo unspecified), the “activity change, positive = activation” value is inactive: 29.6%. Same read-out and setting: the result for `CCOC(=O)c1c(NC2OC(=O)c3c2ccc(OC)c3OC)sc(C(=O)OC(C)(C)C)c1C` (stereo unspecified) reads 57.2%; that for `c1ccc(Cn2nnc3c(N4CCN(Cc5ccc6c(c5)OCO6)CC4)ncnc32)cc1`, -30.5%. `Cc1ccccc1C(=O)Nc1c(C)nc(Nc2ccccc2)nc1Nc1ccccc1`: the “activity change, positive = activation” value was inactive: -38.1%.

With `O=[N+]([O-])c1nn(-c2ccc(Cl)cc2)n(O)c1=NCc1ccccc1Cl`, the activity change, positive = activation came out at 44.4%. Same read-out and setting: the result for `CCOc1ccc(Nc2nnc(-n3nc(C)cc3C)c3ccccc23)cc1` reads 30.7%. For `O=C(Nc1ccccn1)NC1CCCCC1`, the activity change, positive = activation is 35.1%. Turning to `O=C(Nc1ccc(N2CCN(C(=O)c3ccccc3)CC2)cc1)c1ccc2c(c1)OCO2`, the “activity change, positive = activation” value is inactive: -61%. As for `CC(Nc1cccnc1)=C(C#N)C#N`, the activity change, positive = activation turned out to be 15.7%.

Take `CC(C)=NOc1nc(N(C)C)nc(N(C)C)n1`: the activity change, positive = activation was 15.4%. For the molecule `Clc1ccc(OCCn2cnc3ccccc32)cc1`, the “activity change, positive = activation” value is inactive: -33.1%.

Turning to `O=C(O)c1ccc2c(c1)C(=O)N(c1cc(C(=O)O)ccc1Br)C2=O`, the activity change, positive = activation came to 31.9%. Consider `Cc1ccc(/C=N/NC(=O)c2ccccn2)s1`, for which the Potency was active: 3.98 µM. Consider `CC(=O)Nc1ccc(NC2=C(Cl)C(=O)c3ccccc3C2=O)cc1`, for which the activity change, positive = activation was -92.7%. Same read-out and setting: for `CCOC(=O)Cc1csc(NS(=O)(=O)Cc2ccccc2)n1` the value was 38.3%. Still for that read-out and setting: for `CCCn1c(NCc2ccc(N(CC)CC)cc2)nc2ccccc21` the value was inactive: -50.8%. Regarding `O=C(CSc1nnc(C2COc3ccccc3O2)o1)N1CCCC1` (stereo unspecified), the activity change, positive = activation stood at 50.2%. Same read-out and setting: the result for `COC(=O)c1ccc2c(=O)n(CCN3CCOCC3)c(SCC(=O)NCc3ccccc3)nc2c1` reads inactive: -31.7%.
